Data as given in the supplement of paper PMC10849652.
The other results are listed elsewhere or left out.

Chains of the proteins cited; added tags and fusions are not shown. Lines headed by an entry give the natural chain unless they say otherwise; changes in a name come on top.
UniProt O43847: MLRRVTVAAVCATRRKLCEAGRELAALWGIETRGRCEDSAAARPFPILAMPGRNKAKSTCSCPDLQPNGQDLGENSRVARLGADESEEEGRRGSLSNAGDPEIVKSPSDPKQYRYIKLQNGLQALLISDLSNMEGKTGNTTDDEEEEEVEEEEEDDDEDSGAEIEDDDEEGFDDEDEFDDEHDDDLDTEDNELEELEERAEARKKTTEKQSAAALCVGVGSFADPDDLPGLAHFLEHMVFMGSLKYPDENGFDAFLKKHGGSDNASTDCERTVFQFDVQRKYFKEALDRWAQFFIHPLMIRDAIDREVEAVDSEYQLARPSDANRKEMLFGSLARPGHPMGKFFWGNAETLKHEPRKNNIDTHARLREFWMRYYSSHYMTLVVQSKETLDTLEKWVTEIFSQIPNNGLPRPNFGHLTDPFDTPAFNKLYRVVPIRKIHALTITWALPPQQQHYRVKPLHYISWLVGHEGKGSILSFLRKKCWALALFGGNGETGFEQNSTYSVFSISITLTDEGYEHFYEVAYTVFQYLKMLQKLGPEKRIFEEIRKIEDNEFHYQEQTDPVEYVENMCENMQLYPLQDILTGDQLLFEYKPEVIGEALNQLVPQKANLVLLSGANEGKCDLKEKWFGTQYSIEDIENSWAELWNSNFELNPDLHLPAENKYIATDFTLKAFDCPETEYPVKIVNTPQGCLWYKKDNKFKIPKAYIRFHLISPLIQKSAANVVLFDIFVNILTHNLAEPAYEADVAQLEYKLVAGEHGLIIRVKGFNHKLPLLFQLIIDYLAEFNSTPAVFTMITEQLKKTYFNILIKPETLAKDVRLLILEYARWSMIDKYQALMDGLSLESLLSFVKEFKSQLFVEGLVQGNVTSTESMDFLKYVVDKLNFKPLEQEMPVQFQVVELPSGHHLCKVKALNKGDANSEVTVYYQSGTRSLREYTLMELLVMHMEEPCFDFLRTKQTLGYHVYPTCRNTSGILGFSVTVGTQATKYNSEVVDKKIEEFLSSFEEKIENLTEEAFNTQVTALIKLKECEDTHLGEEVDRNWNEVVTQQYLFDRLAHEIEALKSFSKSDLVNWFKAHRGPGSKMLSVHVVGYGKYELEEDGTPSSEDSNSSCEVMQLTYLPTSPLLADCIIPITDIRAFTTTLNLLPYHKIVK
UniProt Q9H8H0: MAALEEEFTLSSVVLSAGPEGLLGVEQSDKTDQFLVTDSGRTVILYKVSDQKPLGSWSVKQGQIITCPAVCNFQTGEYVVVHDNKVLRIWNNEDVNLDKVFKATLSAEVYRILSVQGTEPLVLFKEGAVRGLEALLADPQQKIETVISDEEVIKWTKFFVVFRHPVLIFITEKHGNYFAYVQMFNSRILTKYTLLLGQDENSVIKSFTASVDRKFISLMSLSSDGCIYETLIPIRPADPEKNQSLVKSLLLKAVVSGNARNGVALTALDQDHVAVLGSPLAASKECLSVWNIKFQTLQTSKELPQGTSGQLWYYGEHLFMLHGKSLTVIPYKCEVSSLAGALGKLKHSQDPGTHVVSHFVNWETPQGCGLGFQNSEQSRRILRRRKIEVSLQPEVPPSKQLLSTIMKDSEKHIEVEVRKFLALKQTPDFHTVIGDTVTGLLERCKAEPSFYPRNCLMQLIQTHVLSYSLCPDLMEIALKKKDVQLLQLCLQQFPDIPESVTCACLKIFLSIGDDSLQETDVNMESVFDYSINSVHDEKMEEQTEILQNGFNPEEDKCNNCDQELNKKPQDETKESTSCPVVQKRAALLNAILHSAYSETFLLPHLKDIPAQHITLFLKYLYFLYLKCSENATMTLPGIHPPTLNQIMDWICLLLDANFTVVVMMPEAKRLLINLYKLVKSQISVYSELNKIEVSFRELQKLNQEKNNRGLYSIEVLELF
UniProt P19838: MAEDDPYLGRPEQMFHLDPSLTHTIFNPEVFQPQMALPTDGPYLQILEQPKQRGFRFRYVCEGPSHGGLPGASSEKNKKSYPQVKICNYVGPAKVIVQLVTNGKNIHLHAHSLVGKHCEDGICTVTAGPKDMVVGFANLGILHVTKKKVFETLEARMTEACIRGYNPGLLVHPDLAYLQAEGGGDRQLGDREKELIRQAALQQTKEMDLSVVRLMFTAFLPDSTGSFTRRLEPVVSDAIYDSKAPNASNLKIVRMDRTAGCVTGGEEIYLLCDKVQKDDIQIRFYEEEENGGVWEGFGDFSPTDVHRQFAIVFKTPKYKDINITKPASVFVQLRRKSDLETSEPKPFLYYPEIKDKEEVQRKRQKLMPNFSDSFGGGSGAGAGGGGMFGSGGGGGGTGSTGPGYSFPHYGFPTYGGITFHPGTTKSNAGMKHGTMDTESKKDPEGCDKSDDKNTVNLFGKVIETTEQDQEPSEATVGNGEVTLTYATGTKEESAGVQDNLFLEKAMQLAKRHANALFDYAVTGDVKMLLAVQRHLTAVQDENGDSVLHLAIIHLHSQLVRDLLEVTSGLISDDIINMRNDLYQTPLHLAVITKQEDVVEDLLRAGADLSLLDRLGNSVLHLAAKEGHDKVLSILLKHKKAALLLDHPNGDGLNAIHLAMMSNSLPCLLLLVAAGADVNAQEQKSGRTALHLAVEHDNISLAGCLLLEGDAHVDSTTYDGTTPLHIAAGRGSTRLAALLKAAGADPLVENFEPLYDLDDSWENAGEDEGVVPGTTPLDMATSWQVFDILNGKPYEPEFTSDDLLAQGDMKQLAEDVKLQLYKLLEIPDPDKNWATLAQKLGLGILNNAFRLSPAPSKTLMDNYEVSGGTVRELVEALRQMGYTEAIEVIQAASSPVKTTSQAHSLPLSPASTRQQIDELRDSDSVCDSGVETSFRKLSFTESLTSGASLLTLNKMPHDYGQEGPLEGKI
UniProt Q9UMY1: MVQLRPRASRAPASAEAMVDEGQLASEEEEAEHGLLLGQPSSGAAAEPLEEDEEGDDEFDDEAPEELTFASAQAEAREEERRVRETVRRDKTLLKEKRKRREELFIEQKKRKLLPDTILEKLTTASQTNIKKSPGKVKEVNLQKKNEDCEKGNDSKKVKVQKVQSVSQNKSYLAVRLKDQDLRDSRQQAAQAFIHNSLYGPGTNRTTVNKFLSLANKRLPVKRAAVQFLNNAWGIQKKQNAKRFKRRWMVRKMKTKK
UniProt P40261: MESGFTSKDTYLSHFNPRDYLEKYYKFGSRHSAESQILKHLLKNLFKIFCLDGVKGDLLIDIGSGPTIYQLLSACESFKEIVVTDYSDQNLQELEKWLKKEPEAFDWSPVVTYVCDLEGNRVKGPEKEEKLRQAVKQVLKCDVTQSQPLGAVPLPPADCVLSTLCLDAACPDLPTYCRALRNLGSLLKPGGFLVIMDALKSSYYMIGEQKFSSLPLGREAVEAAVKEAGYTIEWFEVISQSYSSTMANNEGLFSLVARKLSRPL
UniProt Q9Y5B8, whole entry, looked up: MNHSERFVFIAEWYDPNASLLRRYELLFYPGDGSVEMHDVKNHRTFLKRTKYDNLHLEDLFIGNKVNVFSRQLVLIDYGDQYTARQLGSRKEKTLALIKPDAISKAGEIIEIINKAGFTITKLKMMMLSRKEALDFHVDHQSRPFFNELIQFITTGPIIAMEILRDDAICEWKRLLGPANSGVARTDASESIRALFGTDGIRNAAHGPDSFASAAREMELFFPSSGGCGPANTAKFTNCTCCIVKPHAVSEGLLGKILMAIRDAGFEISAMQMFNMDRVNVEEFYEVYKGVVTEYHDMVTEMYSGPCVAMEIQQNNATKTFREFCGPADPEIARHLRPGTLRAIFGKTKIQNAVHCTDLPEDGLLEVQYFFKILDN
UniProt Q9GZP1: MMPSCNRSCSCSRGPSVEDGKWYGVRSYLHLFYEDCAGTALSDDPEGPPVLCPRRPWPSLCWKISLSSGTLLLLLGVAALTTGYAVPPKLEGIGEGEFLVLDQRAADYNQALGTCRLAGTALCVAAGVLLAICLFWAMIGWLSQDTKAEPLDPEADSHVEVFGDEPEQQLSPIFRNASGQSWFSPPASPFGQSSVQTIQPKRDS
UniProt Q96IV0: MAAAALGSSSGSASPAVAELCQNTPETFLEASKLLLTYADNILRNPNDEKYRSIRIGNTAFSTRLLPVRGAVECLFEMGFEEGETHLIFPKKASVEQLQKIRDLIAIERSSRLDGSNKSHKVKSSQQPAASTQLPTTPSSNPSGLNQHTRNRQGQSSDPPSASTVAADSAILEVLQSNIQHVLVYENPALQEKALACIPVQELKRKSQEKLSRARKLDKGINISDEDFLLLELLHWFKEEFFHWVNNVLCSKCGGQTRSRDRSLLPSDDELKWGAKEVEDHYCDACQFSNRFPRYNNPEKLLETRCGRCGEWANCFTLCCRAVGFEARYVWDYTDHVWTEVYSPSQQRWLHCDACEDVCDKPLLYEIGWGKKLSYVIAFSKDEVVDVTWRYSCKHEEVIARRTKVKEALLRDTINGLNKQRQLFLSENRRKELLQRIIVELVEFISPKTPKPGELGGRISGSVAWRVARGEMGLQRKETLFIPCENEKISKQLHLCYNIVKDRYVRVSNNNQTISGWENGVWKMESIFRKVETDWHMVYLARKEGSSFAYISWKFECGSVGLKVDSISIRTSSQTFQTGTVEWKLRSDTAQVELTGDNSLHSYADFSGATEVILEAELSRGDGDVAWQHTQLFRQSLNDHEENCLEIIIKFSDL
UniProt Q8WX92, whole entry, looked up: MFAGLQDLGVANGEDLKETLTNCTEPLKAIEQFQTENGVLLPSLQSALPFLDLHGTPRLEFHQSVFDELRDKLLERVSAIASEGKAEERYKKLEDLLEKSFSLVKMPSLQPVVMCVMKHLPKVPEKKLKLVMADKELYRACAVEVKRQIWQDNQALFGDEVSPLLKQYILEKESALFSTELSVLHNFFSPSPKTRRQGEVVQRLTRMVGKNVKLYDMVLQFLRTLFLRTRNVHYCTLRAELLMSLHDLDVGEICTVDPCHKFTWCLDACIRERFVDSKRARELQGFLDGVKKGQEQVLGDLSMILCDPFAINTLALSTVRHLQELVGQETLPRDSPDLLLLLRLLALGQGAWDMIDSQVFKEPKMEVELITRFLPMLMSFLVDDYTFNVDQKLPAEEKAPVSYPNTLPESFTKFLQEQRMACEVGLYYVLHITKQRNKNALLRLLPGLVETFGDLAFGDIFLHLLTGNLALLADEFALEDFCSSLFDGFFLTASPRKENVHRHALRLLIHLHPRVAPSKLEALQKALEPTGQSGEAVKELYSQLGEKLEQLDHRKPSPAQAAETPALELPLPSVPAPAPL
UniProt P46087: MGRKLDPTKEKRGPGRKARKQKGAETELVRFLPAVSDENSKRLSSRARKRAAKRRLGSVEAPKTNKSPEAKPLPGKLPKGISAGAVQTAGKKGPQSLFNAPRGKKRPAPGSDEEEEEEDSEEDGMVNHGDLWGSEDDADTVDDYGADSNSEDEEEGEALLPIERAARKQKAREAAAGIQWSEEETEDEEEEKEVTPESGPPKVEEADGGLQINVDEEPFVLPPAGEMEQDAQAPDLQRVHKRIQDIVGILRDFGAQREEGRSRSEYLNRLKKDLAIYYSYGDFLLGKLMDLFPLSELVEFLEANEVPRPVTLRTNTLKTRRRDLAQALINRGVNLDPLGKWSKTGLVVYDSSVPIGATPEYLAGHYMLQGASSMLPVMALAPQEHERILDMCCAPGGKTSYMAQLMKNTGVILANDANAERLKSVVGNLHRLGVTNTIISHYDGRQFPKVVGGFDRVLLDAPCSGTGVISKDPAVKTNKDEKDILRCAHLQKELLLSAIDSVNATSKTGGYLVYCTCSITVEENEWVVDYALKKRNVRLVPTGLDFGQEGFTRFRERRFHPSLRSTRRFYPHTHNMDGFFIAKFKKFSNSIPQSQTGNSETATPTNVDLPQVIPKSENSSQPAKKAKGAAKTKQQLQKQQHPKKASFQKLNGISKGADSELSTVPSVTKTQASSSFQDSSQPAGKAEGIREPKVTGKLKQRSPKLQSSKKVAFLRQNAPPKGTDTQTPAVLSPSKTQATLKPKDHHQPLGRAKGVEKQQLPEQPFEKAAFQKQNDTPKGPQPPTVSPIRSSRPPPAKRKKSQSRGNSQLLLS
UniProt P15531, whole entry, looked up: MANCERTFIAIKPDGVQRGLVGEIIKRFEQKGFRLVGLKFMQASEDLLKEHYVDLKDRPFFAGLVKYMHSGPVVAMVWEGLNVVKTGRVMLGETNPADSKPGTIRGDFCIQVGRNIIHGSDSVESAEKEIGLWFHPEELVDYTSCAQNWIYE
UniProt O14524: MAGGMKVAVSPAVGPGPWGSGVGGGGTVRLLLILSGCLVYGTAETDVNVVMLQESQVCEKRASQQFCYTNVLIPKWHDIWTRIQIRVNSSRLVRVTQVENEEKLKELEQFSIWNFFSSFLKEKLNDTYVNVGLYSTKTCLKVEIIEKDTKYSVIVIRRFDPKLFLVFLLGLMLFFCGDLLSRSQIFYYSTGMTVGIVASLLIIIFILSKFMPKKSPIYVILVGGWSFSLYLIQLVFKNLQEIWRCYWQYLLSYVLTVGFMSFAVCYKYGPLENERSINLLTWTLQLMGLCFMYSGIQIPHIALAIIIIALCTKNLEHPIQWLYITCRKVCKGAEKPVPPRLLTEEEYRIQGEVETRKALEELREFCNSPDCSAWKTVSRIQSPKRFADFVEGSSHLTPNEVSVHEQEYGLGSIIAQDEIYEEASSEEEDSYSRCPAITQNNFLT

Experiments:
Test in all cases: log2 fold change, soluble protein after heating vs DMSO (PISA); higher = thermal stabilisation; K562 cells, 10 uM, 30 min; active = over 0.2 and 3.5 SD of the protein, either way, in both replicates (recomputed)
saracatinib = compound: CN1CCN(CCOc2cc(OC3CCOCC3)c3c(Nc4c(Cl)ccc5c4OCO5)ncnc3c2)CC1 [saracatinib]
Summary of the method: (§1)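 Soluble protein was quantified by TMTpro 16plex LC-MS/MS after channel sums were equalised. It was obtained as the supernatant after 21,000xg for 90 min from pooled aliquots of K562 cells (2×10^6 cells/mL, 10 μM compound, 30 min) heated for 3 min across 48°C-58°C and extracted in PBS with 0.5% NP-40 at 4°C. Thermal stability values are relative to control samples and come from duplicates. They are given as log2 fold changes.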

sotrastaurin = compound: CN1CCN(c2nc(C3=C(c4c[nH]c5ccccc45)C(=O)NC3=O)c3ccccc3n2)CC1 [sotrastaurin]
Summary of the method: as §1

Tubastatin A = compound: CN1CCc2c(c3ccccc3n2Cc2ccc(C(=O)NO)cc2)C1 [Tubastatin A]
Summary of the method: as §1

[1] = compound: CNC(=O)C1=CC=CC=C1NC2=NC(=NC=C2Cl)NC3=C(C=C(C=C3)N4CCOCC4)OC
Summary of the method: as §1

defactinib = compound: CNC(=O)c1ccc(Nc2ncc(C(F)(F)F)c(NCc3nccnc3N(C)S(C)(=O)=O)n2)cc1 [defactinib]
Summary of the method: as §1

rucaparib = compound: CNCc1ccc(-c2[nH]c3cc(F)cc4c3c2CCNC4=O)cc1 [rucaparib]
Summary of the method: as §1

[2] = compound: CNc1nc(-c2ccc3c(N)n[nH]c3c2)cc(N2C[C@@H](C(=O)NC3CCCCC3)CC[C@H]2C)n1
Summary of the method: as §1

encorafenib = compound: COC(=O)N[C@@H](C)CNc1nccc(-c2cn(C(C)C)nc2-c2cc(Cl)cc(NS(C)(=O)=O)c2F)n1 [encorafenib]
Summary of the method: as §1

[3] = compound: COC(=O)[C@H](CCSC)NC(=O)C1=C(C=C(C=C1)NC[C@H](CS)N)C2=CC=CC=C2
Summary of the method: as §1

[4] = compound: COC1=CC=C(C=C1)CN2C=CC3=C2C=C(C=C3)C(=O)NO
Summary of the method: as §1

filanesib = compound: CON(C)C(=O)N1N=C(c2cc(F)ccc2F)S[C@@]1(CCCN)c1ccccc1 [filanesib]
Summary of the method: as §1

zotarolimus = compound: CO[C@H]1C[C@@H]2CC[C@@H](C)[C@@](O)(O2)C(=O)C(=O)N2CCCC[C@H]2C(=O)O[C@H]([C@H](C)C[C@@H]2CC[C@H](n3cnnn3)[C@H](OC)C2)CC(=O)[C@H](C)/C=C(\C)[C@@H](O)[C@@H](OC)C(=O)[C@H](C)C[C@H](C)/C=C/C=C/C=C/1C [zotarolimus]
Summary of the method: as §1

idasanutlin = compound: COc1cc(C(=O)O)ccc1NC(=O)[C@@H]1N[C@@H](CC(C)(C)C)[C@](C#N)(c2ccc(Cl)cc2F)[C@H]1c1cccc(Cl)c1F [idasanutlin]
Summary of the method: as §1

alisertib = compound: COc1cc(Nc2ncc3c(n2)-c2ccc(Cl)cc2C(c2c(F)cccc2OC)=NC3)ccc1C(=O)O [alisertib]
Summary of the method: as §1

[5] = compound: COc1cc2nc(-c3cc(F)ccc3O)nc(N[C@@H]3CNC[C@H]3C(C)(C)O)c2cc1OC
Summary of the method: as §1

gefitinib = compound: COc1cc2ncnc(Nc3ccc(F)c(Cl)c3)c2cc1OCCCN1CCOCC1 [gefitinib]
Summary of the method: as §1

[6] = compound: COc1cccc2cc(-c3nc([C@H]4CC[C@H](C(=O)O)CC4)n4ncnc(N)c34)[nH]c12
Summary of the method: as §1

lapatinib = compound: CS(=O)(=O)CCNCc1ccc(-c2ccc3ncnc(Nc4ccc(OCc5cccc(F)c5)c(Cl)c4)c3c2)o1 [lapatinib]
Summary of the method: as §1

pictilisib = compound: CS(=O)(=O)N1CCN(Cc2cc3nc(-c4cccc5[nH]ncc45)nc(N4CCOCC4)c3s2)CC1 [pictilisib]
Summary of the method: as §1

Measured: log2 fold change

NMRAL1 (UniProt Q9HBL8)
inactive: saracatinib 0.115 | sotrastaurin 0.028 | Tubastatin A 0.14 | [1] 0.061 | defactinib 0.122 | [2] 0.018 | encorafenib -0.14 | [3] -0.154 | [4] 0.678 | filanesib -0.084 | zotarolimus 0.135 | idasanutlin -0.268 | alisertib -0.099 | [5] 0.184 | gefitinib 0.257 | [6] 0.003 | lapatinib -0.003 | pictilisib 0.83
active: rucaparib 0.84

NRDC isoform 2 (UniProt O43847)
inactive: saracatinib -0.024 | sotrastaurin -0.028 | Tubastatin A -0.009 | [1] -0.033 | defactinib -0.077 | rucaparib 0.092 | [2] 0.01 | encorafenib 0.024 | [3] -0.076 | [4] 0 | filanesib -0.038 | zotarolimus 0.005 | idasanutlin -0.026 | alisertib 0.013 | [5] 0.076 | gefitinib -0.022 | [6] -0.001 | lapatinib -0.019 | pictilisib -0.029

NOL11 (UniProt Q9H8H0)
inactive: saracatinib 0.093 | sotrastaurin 0.022 | Tubastatin A -0.08 | [1] 0.007 | defactinib 0.186 | rucaparib 0.071 | [2] 0.002 | encorafenib -0.012 | [3] -0.009 | [4] -0.029 | filanesib 0 | zotarolimus 0.005 | idasanutlin -0.046 | alisertib -0.017 | [5] 0.067 | gefitinib -0.008 | [6] 0.056 | lapatinib 0.005 | pictilisib 0.025

NFKB1 isoform 2 (UniProt P19838)
inactive: saracatinib -0.118 | sotrastaurin -0.234 | Tubastatin A 0.111 | [1] -0.027 | defactinib -0.058 | rucaparib 0.097 | [2] -0.015 | encorafenib 0.097 | [3] -0.085 | [4] 0.08 | filanesib 0.068 | zotarolimus -0.056 | idasanutlin 0.018 | alisertib 0.075 | [5] 0.015 | gefitinib 0.027 | [6] -0.018 | lapatinib 0.138 | pictilisib 0.041

NOL7 (UniProt Q9UMY1)
inactive: saracatinib -0.057 | sotrastaurin 0.017 | Tubastatin A 0.161 | [1] 0.032 | defactinib 0.303 | rucaparib 0.312 | [2] 0.098 | encorafenib 0.1 | [3] -0.042 | [4] -0.089 | filanesib 0.524 | zotarolimus -0.024 | idasanutlin 0.157 | alisertib -0.119 | [5] -0.086 | gefitinib -0.006 | [6] -0.142 | lapatinib 0.169 | pictilisib -0.095

NFKBIA (UniProt P25963)
inactive: saracatinib 0.175 | sotrastaurin -0.34 | [1] -0.082 | defactinib -0.167 | rucaparib -0.015 | [2] 0.13 | encorafenib 0.122 | [3] -0.009 | filanesib -0.011 | pictilisib -0.024

NPC1L1 (UniProt Q9UHC9)
inactive: saracatinib -0.026 | sotrastaurin 0.033 | Tubastatin A 0.005 | defactinib -0.093 | rucaparib -0.06 | [2] -0.051 | encorafenib -0.038 | [3] 0.093 | [4] -0.177 | filanesib -0.099 | zotarolimus -0.09 | idasanutlin -0.041 | alisertib -0.144 | [5] 0.079 | gefitinib 0.557 | [6] 0.106 | lapatinib -0.105

NNMT (UniProt P40261)
inactive: saracatinib -0.041 | sotrastaurin 0.01 | Tubastatin A -0.081 | [1] 0.016 | defactinib 0.004 | rucaparib -0.078 | [2] 0.021 | encorafenib -0.021 | [3] 0.038 | [4] -0.057 | filanesib -0.163 | zotarolimus -0.001 | idasanutlin -0.076 | alisertib -0.06 | [5] 0.216 | gefitinib 0.041 | [6] 0.017 | lapatinib -0.019 | pictilisib 0.06

NME7 (UniProt Q9Y5B8)
inactive: saracatinib -0.109 | sotrastaurin -0.017 | Tubastatin A 0.054 | [1] 0.016 | defactinib -0.047 | rucaparib 0.006 | [2] -0.001 | encorafenib 0.086 | [3] -0.006 | [4] -0.1 | filanesib 0.124 | zotarolimus 0.058 | idasanutlin -0.041 | alisertib 0.054 | [5] 0.015 | [6] -0.077 | lapatinib -0.046 | pictilisib 0.071

NRSN2 (UniProt Q9GZP1)
inactive: saracatinib 0.057 | sotrastaurin -0.098 | Tubastatin A -0.063 | [1] 0.097 | [2] -0.123 | filanesib -0.126

NGLY1 (UniProt Q96IV0)
inactive: saracatinib -0.04 | sotrastaurin -0.135 | Tubastatin A -0.04 | [1] 0.01 | defactinib -0.026 | rucaparib 0.161 | [2] 0.05 | encorafenib 0.159 | [3] -0.064 | [4] 0.02 | filanesib 0.043 | zotarolimus -0.012 | idasanutlin 0.112 | alisertib -0.064 | [5] 0.047 | gefitinib 0.076 | [6] -0.128 | lapatinib 0.03 | pictilisib 0.045

NELFB isoform 2 (UniProt Q8WX92)
inactive: saracatinib -0.016 | sotrastaurin -0.065 | Tubastatin A 0.04 | [1] -0.026 | defactinib -0.199 | rucaparib -0.034 | [2] -0.005 | encorafenib 0.079 | [3] -0.057 | [4] 0.01 | filanesib 0.046 | zotarolimus 0.019 | idasanutlin -0.026 | alisertib -0.007 | [5] 0.085 | gefitinib -0.006 | [6] -0.02 | lapatinib -0.029 | pictilisib 0.141

Reprinted at random: 2 records from the list.
NRSN2 (UniProt Q9GZP1)
inactive: saracatinib 0.057 | sotrastaurin -0.098 | Tubastatin A -0.063 | [1] 0.097 | [2] -0.123 | filanesib -0.126

NGLY1 (UniProt Q96IV0)
inactive: saracatinib -0.04 | sotrastaurin -0.135 | Tubastatin A -0.04 | [1] 0.01 | defactinib -0.026 | rucaparib 0.161 | [2] 0.05 | encorafenib 0.159 | [3] -0.064 | [4] 0.02 | filanesib 0.043 | zotarolimus -0.012 | idasanutlin 0.112 | alisertib -0.064 | [5] 0.047 | gefitinib 0.076 | [6] -0.128 | lapatinib 0.03 | pictilisib 0.045

Following part:

NOP53 (UniProt Q9NZM5)
inactive: saracatinib -0.063 | sotrastaurin -0.014 | Tubastatin A 0.141 | [1] -0.019 | defactinib 0.62 | rucaparib 0.36 | [2] 0.035 | encorafenib 0.174 | [3] -0.022 | [4] -0.111 | filanesib 0.533 | zotarolimus -0.008 | idasanutlin 0.365 | alisertib -0.1 | [5] 0.037 | gefitinib -0.127 | [6] -0.207 | lapatinib 0.163 | pictilisib -0.335

NOP2 isoform 4 (UniProt P46087)
inactive: saracatinib -0.09 | sotrastaurin -0.007 | Tubastatin A 0.079 | [1] 0.064 | rucaparib 0.673 | [2] 0.115 | encorafenib 0.238 | [3] -0.024 | [4] -0.053 | filanesib 0.651 | zotarolimus 0.118 | idasanutlin 0.419 | alisertib -0.065 | [5] 0.375 | gefitinib -0.065 | [6] -0.118 | lapatinib 0.456 | pictilisib -0.039
active: defactinib 1.26

NME1 isoform 2 (UniProt P15531)
inactive: saracatinib -0.156 | sotrastaurin 0.049 | Tubastatin A -0.024 | [1] -0.087 | defactinib -0.01 | rucaparib 0.035 | [2] 0.069 | encorafenib -0.032 | [3] 0.041 | [4] 0.017 | filanesib 0.007 | zotarolimus 0.001 | idasanutlin 0.022 | alisertib 0.062 | [5] 0.021 | gefitinib -0.063 | [6] 0.141 | lapatinib -0.009
active: pictilisib 0.666

NOP58 (UniProt Q9Y2X3)
active: filanesib 0.528
inactive: saracatinib -0.044 | sotrastaurin -0.008 | Tubastatin A 0.014 | [1] -0.058 | defactinib -0.004 | rucaparib 0.304 | [2] -0.01 | encorafenib 0.106 | [3] -0.076 | [4] -0.124 | zotarolimus 0.044 | idasanutlin 0.229 | alisertib -0.035 | [5] -0.096 | gefitinib 0.039 | [6] -0.028 | lapatinib 0.054 | pictilisib 0.049

NEMP1 (UniProt O14524)
inactive: saracatinib -0.001 | sotrastaurin -0.012 | Tubastatin A -0.002 | [1] -0.111 | defactinib 0.021 | rucaparib 0.026 | [2] -0.045 | encorafenib -0.039 | [3] 0.053 | [4] -0.041 | filanesib -0.247 | zotarolimus -0.021 | idasanutlin 0.034 | alisertib -0.084 | gefitinib -0.021 | [6] 0.006 | lapatinib 0.001 | pictilisib -0.02
active: [5] -0.487

NNT (UniProt Q13423)
inactive: saracatinib 0.005 | sotrastaurin 0 | Tubastatin A -0.01 | [1] 0.017 | defactinib -0.009 | rucaparib -0.053 | [2] -0.036 | encorafenib -0.001 | [3] -0.014 | [4] -0.008 | filanesib -0.08 | zotarolimus 0.015 | idasanutlin -0.076 | alisertib -0.041 | [5] 0.037 | gefitinib 0.016 | [6] 0.031 | lapatinib -0.031 | pictilisib -0.01

NR2C1 (UniProt P13056)
inactive: sotrastaurin -0.068 | defactinib 0.01 | [3] -0.082 | [4] 0.413 | filanesib 0.081 | idasanutlin 0.057 | alisertib 0.01 | gefitinib 0.03 | [6] 0.058
